Data source: PubChem BioAssay AID1259254 (NCATS, 2017)
In all, the deposit lists about 59,000 reagents; this is a random part of them. Over the whole deposit, about 1,550 (2.6%) are marked active. 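G2 share is only a proxy for re-replication; each gene was hit by three separate siRNAs, and active genes were retested.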 Reagents against one gene are numbered here. Not all columns of the deposit are shown. The record does not give: the amount of reagent.

Test: 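Genome-wide screen for genes that prevent DNA re-replication in cancer cells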 (primary screen)
Cells: human HCT116 colorectal cancer cells
Reagent: single siRNA against human genes
Duration: 3 days
Detection: 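Imaged Hoechst DNA stain sorts each cell into a cycle phase by DNA amount; per plate, G2 fraction set to 0% for non-targeting and 100% for GMNN siRNA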
Reading the numbers: G2 robust z-score: higher = more G2 cells, more excess DNA replication
Hit rule: 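An siRNA counts as active if its G2 robust z-score lies at least 5 MADs above the screen median; here such calls match roughly 38% of GMNN control or more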

G2 robust z-score, by gene and reagent
SNX33 (sorting nexin 33): #1 2.2 inactive; #2 1.16 inactive; #3 -0.22 inactive
ARHGAP22 (Rho GTPase activating protein 22): #1 -0.922 inactive; #2 -0.0592 inactive; #3 0.804 inactive
PGLYRP2 (peptidoglycan recognition protein 2): #1 1.14 inactive; #2 0.3 inactive; #3 0.609 inactive
TMEM141 (transmembrane protein 141): #1 1.59 inactive; #2 0.284 inactive; #3 0.144 inactive
VGF (VGF nerve growth factor inducible): #1 -0.905 inactive; #2 -0.743 inactive; #3 3.1 inactive
TTC39C (tetratricopeptide repeat domain 39C): #1 1.36 inactive; #2 -0.585 inactive; #3 1.55 inactive
ADAMTS3 (ADAM metallopeptidase with thrombospondin type 1 motif 3): #1 0.718 inactive; #2 -0.139 inactive; #3 -0.701 inactive
DCLRE1B (DNA cross-link repair 1B): #1 -0.869 inactive; #2 -0.863 inactive; #3 2.22 inactive
PPP3CC (protein phosphatase 3 catalytic subunit gamma): #1 8.48 active; #2 -1.3 inactive; #3 0.201 inactive
SPANXN5 (SPANX family member N5): #1 -0.422 inactive; #2 -0.874 inactive; #3 0.711 inactive

Reprinted from the listing (5 entries):
G2 robust z-score, by gene and reagent
SNX33 (sorting nexin 33): #2 1.16 inactive; #3 -0.22 inactive
ARHGAP22 (Rho GTPase activating protein 22): #1 -0.922 inactive; #2 -0.0592 inactive; #3 0.804 inactive
